Here are results for 1 molecule from paper doi:10.1101/2025.10.08.681084.

This experiment has as its target K13-GFP (Plasmodium falciparum Kelch13 fused to GFP) (Plasmodium falciparum). The experiment can be described thus: co-IP.

Results are given in words; binding and its absence hold for the method and conditions named. In cells and extracts the contact can be indirect. A result given as binding can be weak or reduced; the word gives no strength.

B1: Nuclear factor erythroid 2-related factor 2 (Nrf2), endogenous in Du145 cells (protein, UniProt Q16236 1-605)
chain: MMDLELPPPGLPSQQDMDLIDILWRQDIDLGVSREVFDFSQRRKEYELEKQKKLEKERQEQLQKEQEKAFFAQLQLDEETGEFLPIQPAQHIQSETSGSANYSQVAHIPKSDALYFDDCMQLLAQTFPFVDDNEVSSATFQSLVPDIPGHIESPVFIATNQAQSPETSVAQVAPVDLDGMQQDIEQVWEELLSIPELQCLNIENDKLVETTMVPSPEAKLTEVDNYHFYSSIPSMEKEVGNCSPHFLNAFEDSFSSILSTEDPNQLTVNSLNSDATVNTDFGDEFYSAFIAEPSISNSMPSPATLSHSLSELLNGPIDVSDLSLCKAFNQNHPESTAEFNDSDSGISLNTSPSVASPEHSVESSSYGDTLLGLSDSEVEELDSAPGSVKQNGPKTPVHSSGDMVQPLSPSQGQSTHVHDAQCENTPEKELPVSPGHRKTPFTKDKHSSRLEAHLTRDELRAKALHIPFPVEKIINLPVVDFNEMMSKEQFNEAQLALIRDIRRRGKNKVAAQNCRKRKLENIVELEQDLDHLKDEKEKLLKEKGENDKSLHLLKKQLSTLYLEVFSMLRDEDGKPYSPSEYSLQQTRDGNVFLVPKSKKPDVKKN
Regarding B1, the binding entry is recorded as “binds”.
